Laboratory results reported in the supplement of paper PMC5711842.
Single values of this set are uncertain.

Test system: Danio rerio embryo
Assay: lowest lethal concentration (of 2, 10, 50 µM tested), 10-36 hpf treatment; higher = less toxic
Conditions: treatment window: 10-36 hpf

| Compound | lowest lethal concentration [µM] |
| --- | --- |
| CC(=O)O/N=C1\C(=O)N(Cc2cc(Cl)ccc2Cl)c2ccc(Cl)cc21 | > 50 |
| CCC(=O)Nc1ccc2ncnc(Nc3cccc(Br)c3)c2c1 | > 50 |
| CCCOc1ccc(C=C2SC(=O)NC2=O)cc1 | > 50 |
| CCc1cc(-c2n[nH]c(C)c2-c2ccc3c(c2)OCCO3)c(O)cc1O | > 50 |
| CCc1ccc(/C=C2/SC(=S)NC2=O)cc1 | 50 |
| CCc1sc(N)nc1-c1ccc(OC)cc1 | > 50 |
| CN=c1nc(-c2ccccc2)n(-c2ccccc2)s1 | > 50 |
| COc1cc(OC)cc(-c2cc3cnc(N)nc3nc2NC(=O)NC(C)(C)C)c1 | > 50 |
| COc1cccc(-c2cc(=O)c3ccccc3o2)c1N | 50 |
| C[C@@H](N)[C@H]1CC[C@H](C(=O)Nc2ccncc2)CC1 | > 50 |
| C[S+]([O-])c1ccc(-c2nc(-c3ccc(F)cc3)c(-c3ccncc3)[nH]2)cc1 (stereo unspecified) | > 50 |
| Cc1[nH]c(/C=C2\C(=O)Nc3ccc(S(=O)(=O)N(C)c4cccc(Cl)c4)cc32)c(C)c1C(=O)N1CCN(C)CC1 | > 50 |
| Cc1cc(I)ccc1Nc1c(C(=O)NOCC2CC2)cc(F)c(F)c1F | 50 |
| Cc1ccc(NC(=O)c2cccc(N(C)C)c2)cc1NC(=O)c1ccc(O)cc1 | > 50 |
| Cc1cccc(Nc2cc(Cl)nc(SCC(=O)O)n2)c1C | > 50 |
| Cc1ccccc1N=Nc1ccc(NC(=O)c2ccnn2C)c(C)c1 | > 50 |
| Cc1nc(-c2ccccc2)c(-c2ccncc2)o1 | > 50 |
| NC(=O)c1ccc(-c2nc(-c3ccccn3)c(-c3ccc4c(c3)OCO4)[nH]2)cc1 | > 50 |
| Nc1[nH]nc2nnc(-c3c(-c4ccccc4)nn4ccccc34)cc12 | > 50 |
| Nc1c(C(=O)c2ccccc2)sc2[nH]c(=O)c(C(=O)O)cc12 | > 50 |
| Nc1ccc(C(=O)Nc2cccc(-c3nc(N4CCOCC4)c4oc5ncccc5c4n3)c2)cn1 | > 50 |

Ordered by number of heavy atoms (descending): some entries from above.

| Compound | lowest lethal concentration [µM] |
| --- | --- |
| Cc1[nH]c(/C=C2\C(=O)Nc3ccc(S(=O)(=O)N(C)c4cccc(Cl)c4)cc32)c(C)c1C(=O)N1CCN(C)CC1 | > 50 |
| C[S+]([O-])c1ccc(-c2nc(-c3ccc(F)cc3)c(-c3ccncc3)[nH]2)cc1 (stereo unspecified) | > 50 |
| CCCOc1ccc(C=C2SC(=O)NC2=O)cc1 | > 50 |

Next entries:

| Compound | lowest lethal concentration [µM] |
| --- | --- |
| Nc1nccc(-c2c(-c3ccc(F)cc3)ncn2C2CCNCC2)n1 | > 50 |
| Nc1ncnc2c1ncn2C1CCCO1 (stereo unspecified) | > 50 |
| Nc1ncnc2n[nH]c(Nc3ccc(F)cc3)c12 | > 50 |
| O=C(Nc1ccc([N+](=O)[O-])cc1O)Nc1ccccc1Br | 50 |
| O=C1C(Nc2ccccc2)=CC(=O)c2ncccc21 | 50 |
| O=C1C(SCCO)=C(SCCO)C(=O)c2ccccc21 | 50 |
| O=C1c2ccccc2-c2n[nH]c3cccc1c23 | 50 |
| O=S(=O)(O)c1ccc2cc(N=Nc3cc(S(=O)(=O)O)c4cccnc4c3O)ccc2c1 | > 50 |
| O=c1cc(N2CCOCC2)oc2c(-c3ccccc3)cccc12 | 50 |
| c1ccc(-c2[nH]ncc2-c2ccnc3ccccc23)nc1 | > 50 |
| c1ccc(-c2n[nH]c3c2oc2ccccc23)cc1 | > 50 |
| CCCCCCCCCCCCCCCC(=O)N[C@H](CN1CCOCC1)[C@H](O)c1ccccc1 (racemic) [DL-PPMP] | > 50 |
| O=C1Cc2c([nH]c3ccc(Br)cc23)-c2ncccc2N1 [1-Azakenpaullone] | 50 |
| Oc1ccccc1-c1ccc2cccnc2n1 [2-(1,8-Naphthyridin-2-yl)phenol] | > 50 |
| Nc1ncnc2c1nc(Br)n2[C@@H]1O[C@@H]2COP(=O)(O)O[C@H]2[C@H]1O [8-bromo-cAMP] | > 50 |
| CC(=N)NCc1cccc(CN)c1 [1400W] | > 50 |
| CC(C)(C)c1cc(C=C(C#N)C(N)=S)cc(C(C)(C)C)c1O [AG 879] | 10 |
| COc1cc2ncc(-c3ccccc3)nc2cc1OC [AG 1296] | > 50 |
| COc1cc2ncnc(Nc3cccc(Cl)c3)c2cc1OC [AG 1478] | > 50 |
| O=C(O)c1ccc(CCCc2ccc(OCCc3ccc(F)cc3)cc2)o1 [AMPK Activator] | 50 |
